PubChem BioAssay AID1439 (NMMLSC, 2008)
Hit rate of the full screen: of about 220,000 compounds, about 770 (0.35%) were called active. The inconclusive results got no clear call from the source; some entries with a clear call stand among them for comparison. No stated cut-off is given here; in the data, active means binding response below about 49% or above about 150%; inconclusive means no clear call, values can overlap the other calls; inactive means in between.

Sequences of proteins named here, by UniProt entry; tags and fusion partners are left off.
UniProt P09471, whole entry, looked up: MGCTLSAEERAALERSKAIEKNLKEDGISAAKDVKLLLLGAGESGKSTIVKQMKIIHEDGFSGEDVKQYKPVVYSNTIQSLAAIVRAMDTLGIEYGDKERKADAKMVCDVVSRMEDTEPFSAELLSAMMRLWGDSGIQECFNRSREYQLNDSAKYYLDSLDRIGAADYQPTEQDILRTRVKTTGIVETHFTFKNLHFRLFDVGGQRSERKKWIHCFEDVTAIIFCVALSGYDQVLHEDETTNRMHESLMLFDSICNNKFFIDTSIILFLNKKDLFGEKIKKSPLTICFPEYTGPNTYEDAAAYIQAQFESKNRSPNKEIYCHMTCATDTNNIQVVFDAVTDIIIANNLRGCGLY

Biological target: Guanine nucleotide-binding protein G(o) subunit alpha (Homo sapiens) (UniProt P09471)
Assay: RGS7-Galphao binding modulators, primary screen, biochemical, multiplexed bead flow cytometry (AID 1439);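 further: fluorescent Galphao held in activated GDP-AlF4 state binding bead-coupled RGS7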
Details: at 10 µM, actives lie on both sides

| Compound | binding response (% of control) |
| --- | --- |
| COC(=O)c1sc(C(F)(F)F)c(-c2ccccc2)c1S(=O)(=O)N(C)C | inconclusive: 108% |
| O=C1/C(=C/c2cccnc2)SC(=S)N1c1ccc(O)cc1 | inconclusive: 67% |
| CCOc1ccc(/C=C2\SC(=S)N(NC(=O)c3ccncc3)C2=O)cc1OC | inconclusive: 61.4% |
| O=c1cc(-c2ccc(Cl)cc2)oc(=O)[nH]1 | inconclusive: 164% |
| O=C(CSc1ncn[nH]1)Nc1ccc(S(=O)(=O)N2CCCC2)cc1 | inactive: 105% |
| CCN=C1S/C(=C\c2ccc(OC)c(OCC)c2)C(=O)N1CC | inactive: 108% |
| COc1ccccc1N1CCN(C(=O)c2coc(=O)c(Br)c2)CC1 | inconclusive: 123% |
| NC(=S)NNC(=O)c1cc(C(F)(F)F)cc(C(F)(F)F)c1 | inconclusive: 106% |
| COc1ccc(C(=O)COC(=O)[C@H](C)Nc2ccc(C(F)(F)F)cc2[N+](=O)[O-])c(OC)c1 | inactive: 94% |
| O=C(CSc1ncn[nH]1)N1c2ccccc2Sc2ccccc21 | inconclusive: 93.3% |
| CCCN1CCN(CCCNC(=S)Nc2ccc3nc(N4CCN(CC)CC4)cc(C)c3c2)CC1 | inconclusive: 120% |
| CN(C)/C=C/C(=O)c1cnc(-c2ccccn2)s1 | inactive: 102% |
| COc1ccc(NC(=O)Cn2c(C(C)C)nc(C)cc2=O)cc1Cl | inactive: 94.7% |
| OCCCNC(=S)Nc1ccc(Br)cc1Cl | inconclusive: 64% |
| Nc1ccc(-n2nc(C(F)(F)F)cc2C(F)(F)F)cc1 | inconclusive: 159% |
| O=C(Cn1nnc(-c2ccccc2)n1)NNC(=O)c1ccccc1 | inconclusive: 109% |
| Cc1cc(C)c2nc(C)cc(Nc3ccc(C(=O)NCCO)cc3)c2c1 | inconclusive: 118% |
| Cc1ccc(Cn2c(=N)n(CC(=O)c3ccccc3)c3ccccc32)cc1 | inactive: 106% |
| Cc1nn(Cc2ccccc2)c(C)c1C(=O)OCC(=O)c1cc(C)n(CC(F)(F)F)c1C | inactive: 98.6% |
| Cc1cccc(C(=O)NCC(c2ccc(F)cc2)N2CCOCC2)c1 (configuration not stated) | inconclusive: 108% |
| COc1ccccc1C(=O)OCCNC(=O)Cn1cnc2c1c(=O)n(C)c(=O)n2C | inconclusive: 88.1% |
| COc1cc([N+](=O)[O-])cc(/C=N/NC(=O)c2cncc(Br)c2)c1O | inconclusive: 126% |
| COc1ccc(C(=O)N/N=C/c2cc(Br)ccc2O)cc1OC | inconclusive: 159% |
| NCCCC(=O)O | inactive: 103% |

Entries from the list above containing a nitro group on carbon, in the order listed:

| Compound | binding response (% of control) |
| --- | --- |
| COc1ccc(C(=O)COC(=O)[C@H](C)Nc2ccc(C(F)(F)F)cc2[N+](=O)[O-])c(OC)c1 | inactive: 94% |
| COc1cc([N+](=O)[O-])cc(/C=N/NC(=O)c2cncc(Br)c2)c1O | inconclusive: 126% |

The list goes on.

| Compound | binding response (% of control) |
| --- | --- |
| CC(C)NC(=O)C1CCN(C2CCN(C(=O)c3ccc4cccc(F)c4n3)CC2)CC1 | inconclusive: 97.8% |
| O=C(CSc1ccccc1)NC1=NCCS1 | inconclusive: 97% |
| COC(=O)C1=C(C)OC(N)=C(C#N)C1c1ccsc1 (configuration not stated) | inactive: 110% |
| O=C(/C=C/c1ccc2c(c1)OCO2)Nc1nc2ccc(F)cc2s1 | inconclusive: 72.3% |
| NC(=O)Cc1nc(-c2ccc(F)cc2)cs1 | inconclusive: 42.4% |
| Cc1ccc(S(=O)(=O)N2CCC(C(=O)O)CC2)cc1 | inactive: 106% |
| Cn1c(O)c(/C=C2\C=NN=C2c2ccccc2)sc1=S | inconclusive: 141% |
| CC(C)c1ccc(NC(=O)COC(=O)C2=COCCO2)cc1 | inactive: 108% |
| O=C(Nc1ccc(S(=O)(=O)Nc2ncccn2)cc1)c1ccccc1NS(=O)(=O)c1ccc(F)cc1 | inconclusive: 98% |
| O=C(CC1C(=O)NCCN1Cc1c(F)cccc1Cl)NC1CCCCCC1 (configuration not stated) | inconclusive: 60.6% |
| C/C(CCC(C)C)=N\NC(=S)NCc1ccccc1 | inconclusive: 108% |
| COc1ccc(CC2(CO)CCN(Cc3ccc4nsnc4c3)CC2)cc1 | inactive: 96.1% |
| CCOC(=O)Cn1c(=NC(=O)C2CC2)sc2c(C)cc(C)cc21 | inconclusive: 97.4% |
| O=C(Nc1ccc(NC(=O)c2ccncc2)cc1)c1ccncc1 | inconclusive: 112% |
| N#CC1=C(N)N2C(=C(C#N)C13CCCC3)Nc1ccccc12 | inactive: 97.9% |
| O=C1CC(c2ccc(F)cc2)Sc2nc(C34CC5CC(CC(C5)C3)C4)nn21 (configuration not stated) | inactive: 98% |
| CCOc1ccc(NC(=S)NC(=O)c2ccco2)cc1 | inconclusive: 116% |
| O=C(NCCCNCCCNC(=O)c1ccc(/C=N/O)nc1)c1ccc(/C=N/O)nc1 | inconclusive: 100% |
| NC(=S)Nc1cc(Cl)cc(Cl)c1 | inconclusive: 92.7% |
| Cc1ccc(CNC(=O)C2CCCN(S(=O)(=O)c3c(C)noc3/C=C/N(C)C)C2)cc1 (configuration not stated) | inconclusive: 97.1% |
| COc1ccc(N(CC(=O)NCCC2=CCCCC2)S(=O)(=O)c2c(C)[nH]c(=O)[nH]c2=O)cc1 | inconclusive: 98% |
| Cc1ccc(-c2nnn(CC(=O)NCCc3ccc4c(c3)OCO4)n2)cc1 | inconclusive: 107% |
| CCc1c(C)c(C#N)c2[nH]c3ccccc3n2c1=S | inconclusive: 71.8% |
